Construct, isoform or probe ends are uncertain for at least one entry. At least one verdict was read from the data and is not stated in words by the source. Where a protein sequence is shown, tags need not be part of it.
Test system: T1, OhrR WT (Chromobacterium violaceum ATCC 12472)
T1 sequence (looked up): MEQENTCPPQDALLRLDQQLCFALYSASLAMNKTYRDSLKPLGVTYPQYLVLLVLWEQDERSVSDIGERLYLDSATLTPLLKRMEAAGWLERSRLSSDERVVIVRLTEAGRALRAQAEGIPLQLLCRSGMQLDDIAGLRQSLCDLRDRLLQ
Test: competition with a labelled probe
Conditions: 250 nM OhrR, EMSA: 20 mM Tris-HCl pH 7.4, 50 mM KCl, 1 mM DTT, 1 mM EDTA, 5% glycerol, 0.05 mg/ml BSA, 0.1 mg/ml salmon sperm DNA, 25 C, 25 min, footprinting the same without EDTA, recombinant protein, residues 1-151, protein details: N-terminal His (pProEX HTa), probe letters rebuilt from the primers and the genome

Row | Sequence | binding result (30-fold unlabeled ohrA promoter) | binding result (30-fold unlabeled ohrR promoter)
1 | TAAGCTTGCGGTGGCTTCGGCGGTATACAGTACTTTTTGCAGAGGGTTCATCTGGCTCTCCTTGGCTTGACGCCGTTGCGATTAAAATAATGAGCTATTTAATAGTGCACTATCTAACTATCAAAACCCTGACGGGTTCATTGCAGCAGCCGGTCGCGCAGATCGCACAGCGACTGCCTCAATCCGGCGATATCGTCCAGTTGCATTCCGCTCCGGCAGGATCCA (double strand) [ohrA promoter] | binds | 
2 | TGGATCCCTCGCTGGCCGATCTGGGACGCGGCCCGGTGCGGGCGGCCGCCTGATCGCGGTTTCGCGCCCGCTTGGCGCGGGCGCGTCGCGGTTCCGCATAATAATAAATTGCTTGCAATTAAATAGTGCACTATTTATTATGCGGCCATGGAACAAGAAAACACGTGCCCGCCGCAGGACGCGCTTTTGCGGCTGGACCAGCAACTCTGCTTCGCGCTGTATTCCGCCAAGCTTA (double strand) [ohrR promoter] |  | binds

From article PMC3469484
